{"source": "patent US9682140B2", "about": "“Ezrin-derived peptides and pharmaceutical compositions thereof” (priority 2016, dated 2017)", "test_system": "MAPK/ERK signaling pathway", "assay": "Activation of MAPK/ERK signaling pathway in BALB/c mouse fibroblasts (immune blotting of phospho-p44/42 MAPK)", "assay_type": "cell-based", "conditions": "1 hour after inoculation, versus negative control", "procedure": "Peptide […] (SEQ ID No: 1) was obtained as described in Example 1, BALB/c mouse fibroblast were purchased from American Type Culture Collection and propagated in a complete medium consisting of high glucose DMEM supplemented with 10% fetal calf serum, 1 mM sodium pyruvate, 1:50 MEM non-essential amino acids, 2 mM L-glutamine, 10 μg/ml gentamicin and 50 μM β-mercaptoethanol. Cells were grown in 10 cm culture dishes at 5% CO2 and 37° C. Cell passages were made at the 50-60% confluency. For cell detachment, 0.05% trypsin/EDTA was used with following centrifugation (470×g, 15 min) in 10-fold volume of washing medium containing 10% FCS to quench trypsin. Supernatant was discarded and the cell pellet was suspended in 10 ml of complete culture medium, then cell numbers were counted using hemocytometer before cells were used for experiments.\nFibroblasts were cultured in 8-well culture plates, the examined peptide or cytokine TGF-β1 (positive control) solution, or equivalent volume of culture medium (negative control) were added into respective triplicate cultures. […] Protein concentration was measured using protein assay reagent (Pierce, 23225). […] Targeted proteins were detected using antibodies specific to phospho-p44/42 MAPK (Cell Signaling, 4370) and GAPDH (Abcam ab8245). Protein bands were visualized and then measured their intensities using ImageJ soft-ware. […]", "note": "Some entries share one result that the patent states for a list of compounds."}
{"substance": "TGF-β1: cytokine TGF-β1 (positive control)", "values": [{"measurement": "increase of concentration of phosphorylated ERK1 (44 kD) and ERK2 (42 kD)", "value": "3-5 fold"}]}
